Measurements reported in PubChem BioAssay AID1259308 (NCATS, 2017).

Assay: 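Candidate targets for better recombinant protein yield in mammalian cells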 (primary screen)
System: human HEK293 embryonic kidney cells stably expressing firefly luciferase (HEK-CMV-Luc2-Hygro)
Reagents: single siRNA against human genes, 0.8 pmol siRNA per well
Duration: 72 h
Detection: 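Luciferase light (ONE-Glo) measured on one replicate plate set and viability (CellTiter-Glo) on the other, scaled to a negative control siRNA, with robust z-scores and luciferase per cell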
Reading the numbers: total luciferase, z-score: higher = more reporter protein produced
Hit rule: 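An siRNA counts as active if its total luciferase robust z-score exceeds 3; genes with two or more such siRNAs out of three were retested with fresh siRNAs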
Calls: active = raised luciferase; inactive = no rise
In all, the deposit lists about 59,000 reagents; below is an unselected part. In the full data, about 1,510 (2.6%) were called active. 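Calls use total luciferase alone and ignore viability, so some active siRNAs may act by altering cell number.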 Reagents against one gene are numbered here. Not all columns of the deposit are shown.

With ADA2 (adenosine deaminase 2) #1, what was measured?
total luciferase, z-score: -0.376; call: inactive

What did the screen give for ADA2 (adenosine deaminase 2) #2?
total luciferase, z-score: 1.17; call: inactive

With ADA2 (adenosine deaminase 2) #3, what was measured?
total luciferase, z-score: -0.889; call: inactive

With EPB41L4B (erythrocyte membrane protein band 4.1 like 4B) #1, how do the results read?
total luciferase, z-score: -0.305; call: inactive

With EPB41L4B (erythrocyte membrane protein band 4.1 like 4B) #2, what was measured?
total luciferase, z-score: 0.11; call: inactive

With EPB41L4B (erythrocyte membrane protein band 4.1 like 4B) #3, how do the results read?
total luciferase, z-score: -1.53; call: inactive

For PLAC8L1 (PLAC8 like 1) #1, what was measured?
total luciferase, z-score: -0.0573; call: inactive

With PLAC8L1 (PLAC8 like 1) #2, what does the deposit list?
total luciferase, z-score: -0.676; call: inactive

With PLAC8L1 (PLAC8 like 1) #3, what does the deposit list?
total luciferase, z-score: 1.11; call: inactive

With RNFT1 (ring finger protein, transmembrane 1) #1, what was measured?
total luciferase, z-score: 0.981; call: inactive

What is on record for RNFT1 (ring finger protein, transmembrane 1) #2?
total luciferase, z-score: -0.354; call: inactive

What did the screen give for RNFT1 (ring finger protein, transmembrane 1) #3?
total luciferase, z-score: 2.15; call: inactive

Which result is listed for CLDN2 (claudin 2) #1?
total luciferase, z-score: -1.1; call: inactive

Which result is listed for CLDN2 (claudin 2) #2?
total luciferase, z-score: -2.28; call: inactive

For CLDN2 (claudin 2) #3, how do the results read?
total luciferase, z-score: 2.39; call: inactive

With DNM3 (dynamin 3) #1, what was measured?
total luciferase, z-score: -0.744; call: inactive

With DNM3 (dynamin 3) #2, what does the deposit list?
total luciferase, z-score: -1.07; call: inactive

For DNM3 (dynamin 3) #3, what does the deposit list?
total luciferase, z-score: 1.59; call: inactive

With TRAK1 (trafficking kinesin protein 1) #1, what was measured?
total luciferase, z-score: -0.289; call: inactive

With TRAK1 (trafficking kinesin protein 1) #2, what was measured?
total luciferase, z-score: -0.813; call: inactive

For TRAK1 (trafficking kinesin protein 1) #3, what does the deposit list?
total luciferase, z-score: -1.02; call: inactive

What did the screen give for ABCA6 (ATP binding cassette subfamily A member 6) #1?
total luciferase, z-score: -0.768; call: inactive

For ABCA6 (ATP binding cassette subfamily A member 6) #2, how do the results read?
total luciferase, z-score: 0.415; call: inactive

What did the screen give for ABCA6 (ATP binding cassette subfamily A member 6) #3?
total luciferase, z-score: 0.536; call: inactive

What did the screen give for ATP2B1 (ATPase plasma membrane Ca2+ transporting 1) #1?
total luciferase, z-score: 1.38; call: inactive

What is on record for ATP2B1 (ATPase plasma membrane Ca2+ transporting 1) #2?
total luciferase, z-score: 0.438; call: inactive

What did the screen give for ATP2B1 (ATPase plasma membrane Ca2+ transporting 1) #3?
total luciferase, z-score: 0.341; call: inactive

For MFRP (membrane frizzled-related protein) #1, how do the results read?
total luciferase, z-score: 4.07; call: active

For MFRP (membrane frizzled-related protein) #2, what was measured?
total luciferase, z-score: -1.15; call: inactive

With MFRP (membrane frizzled-related protein) #3, what was measured?
total luciferase, z-score: 3.2; call: active

With RALB (RAS like proto-oncogene B) #1, what does the deposit list?
total luciferase, z-score: 0.163; call: inactive

For RALB (RAS like proto-oncogene B) #2, how do the results read?
total luciferase, z-score: 0.0863; call: inactive

With RALB (RAS like proto-oncogene B) #3, what does the deposit list?
total luciferase, z-score: 0.522; call: inactive
